{"sequences": {"note": "Chains of the proteins cited; added tags and fusions are not shown. Lines headed by an entry give the natural chain unless they say otherwise; changes in a name come on top. Residues count along the entry.", "UniProt Q7Z569": "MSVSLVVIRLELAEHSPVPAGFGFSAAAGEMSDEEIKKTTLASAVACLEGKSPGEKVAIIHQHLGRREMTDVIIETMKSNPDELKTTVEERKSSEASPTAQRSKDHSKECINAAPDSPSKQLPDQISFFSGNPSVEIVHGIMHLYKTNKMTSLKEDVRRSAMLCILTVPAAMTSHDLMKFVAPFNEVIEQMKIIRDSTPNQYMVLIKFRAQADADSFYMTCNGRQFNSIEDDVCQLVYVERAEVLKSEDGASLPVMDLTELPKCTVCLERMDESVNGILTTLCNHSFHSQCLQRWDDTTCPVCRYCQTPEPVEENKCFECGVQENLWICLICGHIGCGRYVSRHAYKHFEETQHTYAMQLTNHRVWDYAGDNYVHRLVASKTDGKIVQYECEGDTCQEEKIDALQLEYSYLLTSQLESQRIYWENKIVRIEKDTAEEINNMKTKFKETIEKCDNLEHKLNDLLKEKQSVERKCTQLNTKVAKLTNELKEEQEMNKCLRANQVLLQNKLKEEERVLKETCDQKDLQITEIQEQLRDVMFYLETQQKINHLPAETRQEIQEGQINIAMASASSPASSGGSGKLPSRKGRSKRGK", "UniProt P20810": "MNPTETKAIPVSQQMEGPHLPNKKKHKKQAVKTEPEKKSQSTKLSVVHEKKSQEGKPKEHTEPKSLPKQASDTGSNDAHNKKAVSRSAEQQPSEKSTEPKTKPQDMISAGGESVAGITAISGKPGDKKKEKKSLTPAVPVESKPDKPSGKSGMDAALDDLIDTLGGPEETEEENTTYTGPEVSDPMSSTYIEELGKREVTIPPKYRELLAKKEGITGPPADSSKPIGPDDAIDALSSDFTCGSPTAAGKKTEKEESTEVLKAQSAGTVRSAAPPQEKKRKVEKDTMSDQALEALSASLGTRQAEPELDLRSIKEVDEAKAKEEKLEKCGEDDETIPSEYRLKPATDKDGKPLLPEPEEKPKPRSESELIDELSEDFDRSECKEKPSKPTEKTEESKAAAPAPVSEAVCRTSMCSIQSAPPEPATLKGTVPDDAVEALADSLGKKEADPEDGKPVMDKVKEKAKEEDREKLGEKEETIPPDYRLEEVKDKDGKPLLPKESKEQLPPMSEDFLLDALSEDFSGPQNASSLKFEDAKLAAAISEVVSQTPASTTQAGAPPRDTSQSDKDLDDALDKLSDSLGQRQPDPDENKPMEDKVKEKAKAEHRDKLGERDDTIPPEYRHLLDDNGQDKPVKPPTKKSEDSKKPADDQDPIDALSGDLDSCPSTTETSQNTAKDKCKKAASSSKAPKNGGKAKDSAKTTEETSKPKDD", "UniProt Q49AR2, 182-204": "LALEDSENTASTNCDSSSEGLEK", "UniProt Q6PJG6": "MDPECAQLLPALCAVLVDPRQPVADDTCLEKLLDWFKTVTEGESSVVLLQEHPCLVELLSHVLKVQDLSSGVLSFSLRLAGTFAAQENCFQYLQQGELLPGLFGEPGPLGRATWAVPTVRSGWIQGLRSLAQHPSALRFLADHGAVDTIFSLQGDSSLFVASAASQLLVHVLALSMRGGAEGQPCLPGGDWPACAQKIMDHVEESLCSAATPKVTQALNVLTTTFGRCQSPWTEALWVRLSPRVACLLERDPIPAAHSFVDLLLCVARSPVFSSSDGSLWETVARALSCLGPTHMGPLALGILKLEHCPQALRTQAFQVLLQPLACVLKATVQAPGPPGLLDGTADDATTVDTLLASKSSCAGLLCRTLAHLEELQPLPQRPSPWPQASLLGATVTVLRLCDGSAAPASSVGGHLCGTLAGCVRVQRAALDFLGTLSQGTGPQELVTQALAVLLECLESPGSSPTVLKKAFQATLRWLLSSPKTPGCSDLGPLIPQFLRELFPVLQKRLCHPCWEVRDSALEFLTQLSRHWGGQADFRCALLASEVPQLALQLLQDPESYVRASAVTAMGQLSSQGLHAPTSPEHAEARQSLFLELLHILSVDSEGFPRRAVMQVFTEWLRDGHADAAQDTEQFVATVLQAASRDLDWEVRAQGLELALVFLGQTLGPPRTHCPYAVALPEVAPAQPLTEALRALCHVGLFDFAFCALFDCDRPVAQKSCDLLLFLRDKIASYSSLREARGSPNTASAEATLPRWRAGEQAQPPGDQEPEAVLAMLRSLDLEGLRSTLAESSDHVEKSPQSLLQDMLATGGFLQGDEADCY", "UniProt Q9HA77": "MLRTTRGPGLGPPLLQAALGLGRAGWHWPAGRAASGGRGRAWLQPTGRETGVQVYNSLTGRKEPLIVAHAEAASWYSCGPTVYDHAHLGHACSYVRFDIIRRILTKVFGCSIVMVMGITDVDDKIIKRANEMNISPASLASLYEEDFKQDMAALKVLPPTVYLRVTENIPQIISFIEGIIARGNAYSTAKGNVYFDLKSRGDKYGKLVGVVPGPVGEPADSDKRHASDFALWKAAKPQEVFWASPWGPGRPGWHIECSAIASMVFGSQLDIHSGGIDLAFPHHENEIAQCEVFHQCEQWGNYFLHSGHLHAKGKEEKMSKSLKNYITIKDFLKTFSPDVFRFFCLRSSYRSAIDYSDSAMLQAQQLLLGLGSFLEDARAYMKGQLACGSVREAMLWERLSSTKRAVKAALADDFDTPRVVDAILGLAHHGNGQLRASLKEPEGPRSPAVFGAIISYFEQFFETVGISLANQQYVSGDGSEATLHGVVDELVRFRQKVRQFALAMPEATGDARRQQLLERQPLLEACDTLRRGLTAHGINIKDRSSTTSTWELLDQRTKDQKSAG", "UniProt Q8NFC6, 2321-2346": "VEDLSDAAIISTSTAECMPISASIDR", "UniProt Q86WA6": "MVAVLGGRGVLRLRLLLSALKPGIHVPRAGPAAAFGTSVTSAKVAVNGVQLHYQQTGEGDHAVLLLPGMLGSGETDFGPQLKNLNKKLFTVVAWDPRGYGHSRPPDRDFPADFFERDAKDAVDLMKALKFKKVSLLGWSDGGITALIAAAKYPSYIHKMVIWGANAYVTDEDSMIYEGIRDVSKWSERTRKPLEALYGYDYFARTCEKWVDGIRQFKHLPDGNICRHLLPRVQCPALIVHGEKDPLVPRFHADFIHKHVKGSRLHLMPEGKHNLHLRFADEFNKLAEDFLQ", "UniProt O75155": "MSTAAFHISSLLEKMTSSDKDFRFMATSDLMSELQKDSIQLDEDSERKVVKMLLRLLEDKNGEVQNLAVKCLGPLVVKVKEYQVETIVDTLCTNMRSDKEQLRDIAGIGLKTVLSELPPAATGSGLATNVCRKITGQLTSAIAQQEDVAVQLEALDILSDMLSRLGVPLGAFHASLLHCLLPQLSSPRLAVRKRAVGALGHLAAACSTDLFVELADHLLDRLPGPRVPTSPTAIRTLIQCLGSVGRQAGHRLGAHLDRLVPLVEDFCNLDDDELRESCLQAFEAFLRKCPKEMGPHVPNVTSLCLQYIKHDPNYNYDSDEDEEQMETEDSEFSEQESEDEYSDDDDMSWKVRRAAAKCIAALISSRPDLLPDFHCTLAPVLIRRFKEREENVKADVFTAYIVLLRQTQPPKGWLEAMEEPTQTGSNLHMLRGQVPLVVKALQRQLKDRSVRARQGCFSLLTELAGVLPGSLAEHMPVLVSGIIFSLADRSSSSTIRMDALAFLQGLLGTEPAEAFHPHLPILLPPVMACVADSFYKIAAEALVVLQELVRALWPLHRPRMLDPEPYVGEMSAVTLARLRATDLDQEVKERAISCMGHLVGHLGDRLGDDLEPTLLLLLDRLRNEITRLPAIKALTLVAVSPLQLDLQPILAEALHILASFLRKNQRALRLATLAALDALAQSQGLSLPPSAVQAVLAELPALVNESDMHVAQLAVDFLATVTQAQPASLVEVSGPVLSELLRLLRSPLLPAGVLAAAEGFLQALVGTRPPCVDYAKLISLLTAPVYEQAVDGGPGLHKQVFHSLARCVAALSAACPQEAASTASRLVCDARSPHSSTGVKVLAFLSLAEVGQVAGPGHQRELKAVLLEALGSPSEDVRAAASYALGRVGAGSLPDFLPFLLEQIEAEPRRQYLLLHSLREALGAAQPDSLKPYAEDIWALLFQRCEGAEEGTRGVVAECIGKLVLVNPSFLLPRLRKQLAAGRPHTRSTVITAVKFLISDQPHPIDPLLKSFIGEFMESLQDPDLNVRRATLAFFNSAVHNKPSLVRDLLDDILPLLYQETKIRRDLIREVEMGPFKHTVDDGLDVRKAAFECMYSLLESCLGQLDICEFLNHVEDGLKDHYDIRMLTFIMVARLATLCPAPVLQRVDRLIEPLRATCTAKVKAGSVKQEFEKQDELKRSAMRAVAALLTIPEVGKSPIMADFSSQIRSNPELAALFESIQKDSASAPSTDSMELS", "UniProt Q9Y6J0": "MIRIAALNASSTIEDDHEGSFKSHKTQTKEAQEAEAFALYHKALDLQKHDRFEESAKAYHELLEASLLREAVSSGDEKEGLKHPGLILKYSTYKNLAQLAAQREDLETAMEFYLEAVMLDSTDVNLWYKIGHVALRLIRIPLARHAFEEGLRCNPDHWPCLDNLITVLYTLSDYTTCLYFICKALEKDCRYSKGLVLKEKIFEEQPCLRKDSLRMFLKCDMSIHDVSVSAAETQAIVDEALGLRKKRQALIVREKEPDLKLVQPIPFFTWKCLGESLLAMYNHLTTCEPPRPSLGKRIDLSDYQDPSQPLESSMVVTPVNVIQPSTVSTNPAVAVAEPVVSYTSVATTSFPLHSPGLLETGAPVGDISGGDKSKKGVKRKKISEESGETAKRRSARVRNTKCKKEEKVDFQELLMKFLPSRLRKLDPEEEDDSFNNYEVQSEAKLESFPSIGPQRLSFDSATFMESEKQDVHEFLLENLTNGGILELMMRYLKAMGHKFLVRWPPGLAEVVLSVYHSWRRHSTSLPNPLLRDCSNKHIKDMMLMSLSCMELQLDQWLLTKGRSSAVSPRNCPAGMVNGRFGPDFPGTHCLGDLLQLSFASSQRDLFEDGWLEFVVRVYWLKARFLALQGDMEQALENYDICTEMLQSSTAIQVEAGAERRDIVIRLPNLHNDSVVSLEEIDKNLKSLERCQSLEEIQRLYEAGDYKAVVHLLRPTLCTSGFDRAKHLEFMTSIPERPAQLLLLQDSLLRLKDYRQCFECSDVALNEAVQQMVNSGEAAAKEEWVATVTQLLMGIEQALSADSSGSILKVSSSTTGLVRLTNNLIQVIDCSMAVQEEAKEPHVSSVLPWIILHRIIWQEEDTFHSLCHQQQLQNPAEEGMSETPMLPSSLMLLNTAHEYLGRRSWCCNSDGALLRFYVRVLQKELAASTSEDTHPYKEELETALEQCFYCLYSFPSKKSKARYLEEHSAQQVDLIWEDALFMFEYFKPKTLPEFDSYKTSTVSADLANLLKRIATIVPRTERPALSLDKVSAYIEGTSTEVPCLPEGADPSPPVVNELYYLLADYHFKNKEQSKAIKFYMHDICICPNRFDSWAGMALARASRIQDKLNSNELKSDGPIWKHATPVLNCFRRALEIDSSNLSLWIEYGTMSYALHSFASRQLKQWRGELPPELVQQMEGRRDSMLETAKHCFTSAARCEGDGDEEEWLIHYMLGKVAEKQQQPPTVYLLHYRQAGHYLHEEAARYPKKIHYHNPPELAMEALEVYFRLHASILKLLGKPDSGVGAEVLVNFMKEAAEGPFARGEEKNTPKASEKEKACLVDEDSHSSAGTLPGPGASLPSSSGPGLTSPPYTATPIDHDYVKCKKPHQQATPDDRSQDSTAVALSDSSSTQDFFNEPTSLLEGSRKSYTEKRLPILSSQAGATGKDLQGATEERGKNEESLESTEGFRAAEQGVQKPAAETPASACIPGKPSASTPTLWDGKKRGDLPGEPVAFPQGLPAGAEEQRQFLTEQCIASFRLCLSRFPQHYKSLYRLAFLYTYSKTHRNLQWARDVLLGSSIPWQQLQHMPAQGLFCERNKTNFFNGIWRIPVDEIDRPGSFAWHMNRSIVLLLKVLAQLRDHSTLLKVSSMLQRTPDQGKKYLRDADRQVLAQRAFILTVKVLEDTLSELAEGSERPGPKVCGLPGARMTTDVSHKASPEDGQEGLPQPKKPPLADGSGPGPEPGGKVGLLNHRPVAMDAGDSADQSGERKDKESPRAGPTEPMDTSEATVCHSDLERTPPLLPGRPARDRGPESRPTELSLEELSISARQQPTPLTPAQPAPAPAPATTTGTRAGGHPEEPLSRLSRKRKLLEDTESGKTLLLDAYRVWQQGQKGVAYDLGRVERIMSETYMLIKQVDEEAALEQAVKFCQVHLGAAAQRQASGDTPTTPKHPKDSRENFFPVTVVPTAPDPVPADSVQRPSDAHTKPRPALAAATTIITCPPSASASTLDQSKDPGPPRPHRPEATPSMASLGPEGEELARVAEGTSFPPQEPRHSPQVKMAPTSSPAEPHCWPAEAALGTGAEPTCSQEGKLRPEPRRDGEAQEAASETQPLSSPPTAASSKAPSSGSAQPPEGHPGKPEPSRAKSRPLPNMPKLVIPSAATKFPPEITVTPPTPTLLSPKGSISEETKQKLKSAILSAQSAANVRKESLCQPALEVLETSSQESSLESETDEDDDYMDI", "UniProt O75808, 250-272": "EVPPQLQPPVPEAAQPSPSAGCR"}, "source": "the supplement of paper PMC11732987", "about": "“Enantioselective OTUD7B fragment discovery through chemoproteomics screening and high-throughput optimisation” (Communications Chemistry, 2025)", "note": "This is one part of the list. The data scatter; read single values as rough."}
{"compound": "ClCC(=O)N[C@@H]1CCCc2ccccc12", "experiment": "log2 mean competition ratio of IA-DTB cysteine labelling (DMSO/compound) (log2 ratio); higher = stronger cysteine engagement by compound", "settings": "200 µM; treatment time: 4 h; cell line lysate: HEK293T", "description": "(§1)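 IA-DTB competitive cysteine chemoproteomics in HEK293T RIPA lysate. Lysates were treated with compound 29 or 30 at 50 or 200 µM for 4 h, then IA-DTB (500 µM, 1 h), trypsin-digested, NeutrAvidin-enriched and analysed by diaPASEF. Competition ratio = intensity DMSO / intensity compound (n=4 treated, n=64 DMSO); binding: mean log2 CR ≥ 1 and p ≤ 0.05 plus QC filters. Target is the cysteine site.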"}
{"target": "BRAP C110 (UniProt Q7Z569)", "log2 mean competition ratio": -0.0845}
{"target": "BPTF C20", "log2 mean competition ratio": 0.0487}
{"target": "BRD8 C142 (UniProt Q9H0E9)", "log2 mean competition ratio": 0.164}
{"target": "C1orf21 C114", "log2 mean competition ratio": 0.0278}
{"target": "CAMSAP1 C719 (UniProt Q5T5Y3)", "log2 mean competition ratio": 0.133}
{"target": "BRMS1L C127 (UniProt Q5PSV4)", "log2 mean competition ratio": -0.0958}
{"target": "C2CD5 C449 (UniProt Q86YS7)", "log2 mean competition ratio": -0.00821}
{"target": "CAST C413 (UniProt P20810)", "log2 mean competition ratio": -0.17}
{"target": "C5orf22 C195 (UniProt Q49AR2)", "log2 mean competition ratio": -0.312}
{"target": "BRIX1 C52 (UniProt Q8TDN6)", "log2 mean competition ratio": -0.187}
{"target": "CAMKK2 C4 (UniProt Q96RR4)", "log2 mean competition ratio": 0.119}
{"target": "BRAT1 C246 (UniProt Q6PJG6)", "log2 mean competition ratio": 0.296}
{"target": "BZW2 C350 (UniProt Q9Y6E2)", "log2 mean competition ratio": -0.233}
{"target": "C3orf80 C177", "log2 mean competition ratio": 0.276}
{"target": "BTF3 C22 (UniProt P20290)", "log2 mean competition ratio": -0.281}
{"target": "BUB1 C407 (UniProt O43683)", "log2 mean competition ratio": 0.221}
{"target": "CARS2 C526 (UniProt Q9HA77)", "log2 mean competition ratio": 0.299}
{"target": "BOD1L1 C2337 (UniProt Q8NFC6)", "log2 mean competition ratio": 0.0867}
{"target": "BRAT1 C487 (UniProt Q6PJG6)", "log2 mean competition ratio": 0.432}
{"compound": "ClCC(=O)N[C@H]1CCCc2ccccc12", "experiment": "log2 mean competition ratio of IA-DTB cysteine labelling (DMSO/compound) (log2 ratio); higher = stronger cysteine engagement by compound", "settings": "50 µM; treatment time: 4 h; cell line lysate: HEK293T", "description": "as §1"}
{"target": "C12orf57 C44 (UniProt Q99622)", "log2 mean competition ratio": 0.205}
{"target": "C9orf78 C145 (UniProt Q9NZ63)", "log2 mean competition ratio": 0.181}
{"target": "BRIP1 C1164 (UniProt Q9BX63)", "log2 mean competition ratio": -0.287}
{"target": "BPHL C225 (UniProt Q86WA6)", "log2 mean competition ratio": -0.0771}
{"target": "BPTF C2888", "log2 mean competition ratio": 0.0544}
{"target": "BTD C371 (UniProt P43251)", "log2 mean competition ratio": -0.0744}
{"target": "C2orf72 C244", "log2 mean competition ratio": 0.0734}
{"target": "CAND2 C240 (UniProt O75155)", "log2 mean competition ratio": -0.223}
{"target": "BRAT1 C308 (UniProt Q6PJG6)", "log2 mean competition ratio": -0.0493}
{"target": "BRIP1 C42 (UniProt Q9BX63)", "log2 mean competition ratio": 0.0852}
{"target": "C1orf112 C559 (UniProt Q9NSG2)", "log2 mean competition ratio": 0.226}
{"target": "CAMKMT C281 (UniProt Q7Z624)", "log2 mean competition ratio": -0.153}
{"target": "CABIN1 C1197 (UniProt Q9Y6J0)", "log2 mean competition ratio": -0.116}
{"target": "BOD1L1 C74 (UniProt Q8NFC6)", "log2 mean competition ratio": 0.0135}
{"target": "CAPN15 C271 (UniProt O75808)", "log2 mean competition ratio": -0.119}
{"target": "CASP8AP2 C1100 (UniProt Q9UKL3)", "log2 mean competition ratio": -0.0906}
{"target": "BOD1L1 C749 (UniProt Q8NFC6)", "log2 mean competition ratio": 0.165}
{"target": "CBFA2T2 C261 (UniProt O43439)", "log2 mean competition ratio": 0.619}
{"target": "C15orf39 C50 (UniProt Q6ZRI6)", "log2 mean competition ratio": 0.17}
{"target": "BRAP C110 (UniProt Q7Z569)", "log2 mean competition ratio": -0.369}
{"target": "BPTF C20", "log2 mean competition ratio": -0.221}
{"target": "BRD8 C142 (UniProt Q9H0E9)", "log2 mean competition ratio": -0.183}
{"target": "C1orf21 C114", "log2 mean competition ratio": -0.0932}
{"target": "CAMSAP1 C719 (UniProt Q5T5Y3)", "log2 mean competition ratio": 0.363}
{"target": "BRMS1L C127 (UniProt Q5PSV4)", "log2 mean competition ratio": -0.0641}
{"target": "C2CD5 C449 (UniProt Q86YS7)", "log2 mean competition ratio": 0.0933}
{"target": "CAST C413 (UniProt P20810)", "log2 mean competition ratio": 0.695}
{"target": "C5orf22 C195 (UniProt Q49AR2)", "log2 mean competition ratio": 0.294}
{"target": "BRIX1 C52 (UniProt Q8TDN6)", "log2 mean competition ratio": 0.132}
{"target": "CAMKK2 C4 (UniProt Q96RR4)", "log2 mean competition ratio": 0.149}
{"target": "BRAT1 C246 (UniProt Q6PJG6)", "log2 mean competition ratio": 0.257}
{"target": "BZW2 C350 (UniProt Q9Y6E2)", "log2 mean competition ratio": -0.188}
{"target": "C3orf80 C177", "log2 mean competition ratio": -0.551}
{"target": "BTF3 C22 (UniProt P20290)", "log2 mean competition ratio": 0.343}
{"target": "BUB1 C407 (UniProt O43683)", "log2 mean competition ratio": -0.0355}
{"target": "CARS2 C526 (UniProt Q9HA77)", "log2 mean competition ratio": -0.151}
{"target": "BOD1L1 C2337 (UniProt Q8NFC6)", "log2 mean competition ratio": 0.0458}
{"target": "BRAT1 C487 (UniProt Q6PJG6)", "log2 mean competition ratio": -0.27}
